These are yes or no findings as the source states them, for the method shown. Binding seen in cells or lysates may run through a third protein. Some entries that bind do so weakly or less than the wild type. Sequences can lack the tags named with a protein.
Biological target: T1, HA-SUV39H1 (UniProt O43463)
T1 sequence: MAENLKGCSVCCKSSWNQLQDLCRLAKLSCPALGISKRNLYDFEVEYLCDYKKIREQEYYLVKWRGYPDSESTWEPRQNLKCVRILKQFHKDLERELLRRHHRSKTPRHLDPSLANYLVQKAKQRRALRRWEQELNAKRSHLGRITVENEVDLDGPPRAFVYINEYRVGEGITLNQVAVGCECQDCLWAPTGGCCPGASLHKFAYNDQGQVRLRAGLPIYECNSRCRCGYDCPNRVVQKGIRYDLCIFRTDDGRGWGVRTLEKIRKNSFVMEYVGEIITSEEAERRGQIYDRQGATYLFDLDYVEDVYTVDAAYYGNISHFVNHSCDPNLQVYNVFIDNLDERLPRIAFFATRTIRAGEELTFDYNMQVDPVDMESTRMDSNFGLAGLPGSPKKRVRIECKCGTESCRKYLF
Test: co-IP; HA-SUV39H1 and Flag-vigilin co-transfected into HEK293A cells; lysis in 50 mM Tris-HCl, 250 mM NaCl, 5 mM EDTA, 50 mM NaF, 0.1% NP40; anti-HA antibody at 4 °C overnight, protein A/G agarose beads; Western blot

Sequences of proteins named here, by UniProt entry; tags and fusion partners are left off.
UniProt Q00341: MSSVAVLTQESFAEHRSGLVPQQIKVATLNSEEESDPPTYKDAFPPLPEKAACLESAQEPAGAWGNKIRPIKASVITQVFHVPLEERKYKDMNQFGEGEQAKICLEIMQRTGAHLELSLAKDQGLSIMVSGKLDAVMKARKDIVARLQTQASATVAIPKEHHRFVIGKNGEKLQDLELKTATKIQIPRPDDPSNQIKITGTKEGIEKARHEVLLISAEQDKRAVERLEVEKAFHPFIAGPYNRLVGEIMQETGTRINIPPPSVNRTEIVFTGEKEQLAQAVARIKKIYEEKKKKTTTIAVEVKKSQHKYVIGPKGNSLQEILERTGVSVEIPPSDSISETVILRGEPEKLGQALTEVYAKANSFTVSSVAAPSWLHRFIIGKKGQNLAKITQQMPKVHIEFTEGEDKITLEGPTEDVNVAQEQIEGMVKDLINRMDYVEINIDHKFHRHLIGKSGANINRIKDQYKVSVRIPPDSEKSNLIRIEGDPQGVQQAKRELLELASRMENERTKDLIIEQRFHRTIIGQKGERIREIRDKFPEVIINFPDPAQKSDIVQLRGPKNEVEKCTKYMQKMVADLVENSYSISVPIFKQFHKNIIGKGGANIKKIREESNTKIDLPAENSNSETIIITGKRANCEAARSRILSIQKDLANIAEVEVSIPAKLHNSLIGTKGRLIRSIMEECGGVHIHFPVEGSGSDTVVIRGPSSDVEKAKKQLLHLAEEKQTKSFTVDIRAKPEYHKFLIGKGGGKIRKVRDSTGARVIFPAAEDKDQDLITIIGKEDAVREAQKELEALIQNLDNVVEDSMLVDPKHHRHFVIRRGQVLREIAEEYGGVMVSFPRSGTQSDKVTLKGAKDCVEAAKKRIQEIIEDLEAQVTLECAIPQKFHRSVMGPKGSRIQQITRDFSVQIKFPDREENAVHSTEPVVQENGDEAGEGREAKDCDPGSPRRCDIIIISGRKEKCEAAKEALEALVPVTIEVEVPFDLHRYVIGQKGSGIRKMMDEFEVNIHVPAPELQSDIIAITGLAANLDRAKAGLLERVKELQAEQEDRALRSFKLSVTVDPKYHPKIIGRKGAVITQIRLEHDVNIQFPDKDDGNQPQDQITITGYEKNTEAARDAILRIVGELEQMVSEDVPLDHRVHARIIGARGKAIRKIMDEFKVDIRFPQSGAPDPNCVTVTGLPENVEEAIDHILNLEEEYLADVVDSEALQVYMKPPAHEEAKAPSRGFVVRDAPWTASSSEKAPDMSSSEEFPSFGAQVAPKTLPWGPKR

Substance: Flag-vigilin (from UniProt Q00341 1-1268)
- binding: binds
